The source of these data is patent US20230084099A1 (NATIONAL UNIVERSITY CORPORATION TOKAI NATIONAL HIGHER …, published 2023).

These are yes or no findings as the source states them, for the method shown. Some entries that bind do so weakly or less than the wild type.

This assay addresses T1, human MEFLIN protein (human, UniProt O14498 19-428, limits assumed).
T1 construct: In the Western blot the protein and its fragments carried a C-terminal G196 tag and His tag and were expressed in HEK293 cells; also called hMEFLIN; ISLR
T1 sequence (looked up): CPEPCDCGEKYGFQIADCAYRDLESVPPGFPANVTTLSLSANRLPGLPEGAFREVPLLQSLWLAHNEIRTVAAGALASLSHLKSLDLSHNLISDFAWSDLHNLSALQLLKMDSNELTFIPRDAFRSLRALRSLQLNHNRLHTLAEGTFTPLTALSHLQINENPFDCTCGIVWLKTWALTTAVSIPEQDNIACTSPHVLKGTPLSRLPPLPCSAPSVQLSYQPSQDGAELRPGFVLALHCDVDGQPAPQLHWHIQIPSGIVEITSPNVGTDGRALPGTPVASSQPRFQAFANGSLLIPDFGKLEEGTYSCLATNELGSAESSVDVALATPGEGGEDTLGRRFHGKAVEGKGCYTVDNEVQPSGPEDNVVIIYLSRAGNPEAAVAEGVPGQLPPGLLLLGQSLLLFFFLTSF
In words: Western blotting on tagged human MEFLIN fragments. How it is done:
The human embryonic kidney (HEK293) cell line was allowed to transiently express pRP-CMV vector having an insert of DNA encoding the human MEFLIN protein or a fragment thereof by lipofection, and a cell lysate was prepared. […] SDS-PAGE was performed using the cell lysate, and the electrophoresed protein was transferred to a PVDF membrane. The PVDF membrane was reacted at ordinary temperature for 1 hour using 5% skimmed milk/PBS. The primary antibody used was a culture supernatant of each hybridoma clone diluted 50-fold with PBS. For a positive subject, an anti-G196 antibody was used as a primary antibody. The PVDF membrane was reacted overnight at 4° C. in the presence of the primary antibody. Then, the PVDF membrane was washed with 0.05% Tween/PBS. The secondary antibody used was an anti-rat or anti-mouse antibody-horseradish peroxidase (HRP) conjugate. The secondary antibody was diluted 1000-fold with PBS and reacted with the PVDF membrane at ordinary temperature for 45 minutes. After washing with 0.05% Tween/PBS, the HRP label on the antibody was allowed to emit light using ECL (GE Healthcare Japan Corp.), and an image was captured into a computer using a CCD imager (Las 4000, GE Healthcare Japan Corp.).
On the technique in general: A western blot detects proteins with antibodies after separation by electrophoresis.

B1: 16-5 antibody (antibody, V domains shown)
VH: VKLQQSGGGLVQPGGSRKLSCAASGFTFSDYGMAWVRQAPGKGPEWVAFISSLAYTVYYADTVTGRFTISRENAKNTLFLEMSSLRSEDTAMYYCARFPVEAMDYWGQGTSVTVSS
VL: DIVMTQTPLSLPVSLGDQASISCRSSQSLVHSNGNTYLHWYLQKPGQSPKLLIYKVSNRFSGVPDRFSGSGSGTDFTLKISRVEAEDLGVYFCSQSTHFLTFGSGTKLEIK
B1: the binding result is reported as “binds”.
